Data published in PubChem BioAssay AID504444 (National Center for Advancing Translational Sciences (NCATS), 2011).
Hit rate of the full screen: of about 360,000 compounds, about 7,500 (2.1%) were called active. Only results without a clear call are listed here; the source files them as inconclusive. Calls come from the whole dose curve; as a rule, active = well fitted inhibition curve with a large enough effect; inconclusive = small, poorly fitted or top-dose-only effect, or effect the other way; inactive = flat fitted curve, though single readings scatter.

Test: Nrf2 qHTS screen for inhibitors; note: nearly all actives have a fitted effect of over 60% in size
Conditions: A549 ARE-Fluc reporter, luciferase luminescence, 18-24 h
Potency is the fitted concentration of half-maximal effect.

SMILES	Potency
CC(C)(C)c1ccc(OP(C)(=O)Nc2ccc(SC(F)(F)F)cc2)cc1 (centres undefined)	inconclusive: 20.6 µM
CP(=O)(Nc1ccc(SC(F)(F)F)cc1)Oc1ccc(Cl)cc1 (centres undefined)	inconclusive: 25.9 µM
CCc1ccc(OP(C)(=O)N2CCN(c3ccc([N+](=O)[O-])cc3)CC2)cc1 (centres undefined)	inconclusive: 20.6 µM
Cc1cc(C)cc(OP(C)(=O)Nc2ccc(SC(F)(F)F)cc2)c1 (centres undefined)	inconclusive: 23.1 µM
O=[N+]([O-])c1cc([N+](=O)[O-])c(-c2cnn(-c3ccccc3)c2)c([N+](=O)[O-])c1	inconclusive: 14.6 µM
CCCOc1ccc(NP(C)(=O)Oc2ccc(Cl)cc2)cc1 (centres undefined)	inconclusive: 32.6 µM
CP(=O)(Nc1ccc(SC(F)(F)F)cc1)Oc1ccccc1 (centres undefined)	inconclusive: 11.6 µM
COc1ccccc1OP(C)(=O)Nc1cccc(Br)c1 (centres undefined)	inconclusive: 7.31 µM
O=C(OCCN1CCN(CCOCc2ccccc2)CC1)C(O)(c1ccccc1)c1ccccc1	inconclusive: 10.3 µM
CCN(CC)CCCOC(=O)C(O)(c1ccccc1)C1CCCCC1 (centres undefined)	inconclusive: 14.6 µM
COc1ccc(OP(C)(=O)Nc2cccc(Br)c2)cc1 (centres undefined)	inconclusive: 6.51 µM
CP(=O)(OC12CC3CC(CC(C3)C1)C2)OC12CC3CC(CC(C3)C1)C2	inconclusive: 29.1 µM
CCCCCCCCCCCCCCCC1C[N+](C)(C)CCOP(C)(=O)O1 (centres undefined)	inconclusive: 14.6 µM
O=[N+]([O-])c1cc([N+](=O)[O-])c(Nc2ccccn2)c([N+](=O)[O-])c1	inconclusive: 29.1 µM
